According to PMC7819943, “Rice protein-binding microarrays: a tool to detect cis-acting elements near promoter regions in rice”:
The other results are listed elsewhere or left out.

Sequences of proteins named here, by UniProt entry; tags and fusion partners are left off.
UniProt Q0JBA9, entry or part of it: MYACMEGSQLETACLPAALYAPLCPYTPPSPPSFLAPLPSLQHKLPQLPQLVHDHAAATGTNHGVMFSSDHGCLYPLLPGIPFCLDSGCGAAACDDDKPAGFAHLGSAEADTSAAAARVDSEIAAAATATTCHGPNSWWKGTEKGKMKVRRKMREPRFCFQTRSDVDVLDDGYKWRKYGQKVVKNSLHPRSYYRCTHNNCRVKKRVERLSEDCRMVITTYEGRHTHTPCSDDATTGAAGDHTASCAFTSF

Each sequence was assayed against OsWRKY34 (Oryza sativa, UniProt Q0JBA9 1-250) (assay: protein-binding microarray (RPBM); PBS, 2% BSA, 51.3 ng/ul salmon testes DNA, 50 uM zinc acetate, 200 nM TF, 25 C, 1 h; high values mean tight binding). Conditions: protein: recombinant; tags: N-terminal polyhistidine and DsRed monomer fusion (pET32a); label: CyDye5-dUTP incorporated in the synthesized complementary strand; 3' TTTTT single-stranded linker to array surface; dsDNA, one strand shown.
Method in brief: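 Binding signal is reported as fluorescence intensity per feature (arbitrary units) from an Axon 4000B scanner. Incubation used 200 nM of each Ni–NTA-purified, N-terminally polyhistidine- and DsRed-fused transcription factor from E. coli BL21-CodonPlus on a double-stranded custom Agilent array for 1 h at 25 °C, with 50 µM zinc acetate in the buffer, followed by washing.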

Sequence | binding signal
GTGTGTTCAGGTCAGTTCGCGTGCATCGTGTGTGTGTTTGCGGAGTCACCTAGTGCAG | 8430 fluorescence intensity (a.u.)
AGCGATGCTGAAAGCGCCGGCCACTCCAACGCCATCACTCCGGAGTCACCTAGTGCAG | 8370 fluorescence intensity (a.u.)
GGCGTCATCTAAACTCAAAATATCTTACGGTTGGTTTCTACGGAGTCACCTAGTGCAG | 8510 fluorescence intensity (a.u.)
GTGTAGGTCTGGCTCTAGCTGTTGGTGAGGGAAAAAAAAACGGAGTCACCTAGTGCAG | 9550 fluorescence intensity (a.u.)
TATTAGATTACTTGCCGTGTTGCGATGGTTCAAGCTGTTACGGAGTCACCTAGTGCAG | 8850 fluorescence intensity (a.u.)
CGATGAGTTCTATAATTTTTTTGTTTATGATTTTTGCATTCGGAGTCACCTAGTGCAG | 8540 fluorescence intensity (a.u.)
GTTAATGCTATTTATCTCGTTCTCTCATTAAGCCACATCACGGAGTCACCTAGTGCAG | 9890 fluorescence intensity (a.u.)
CTCATCTCATCATCCACCATCAGTCCGTGCAGTTTGGAGCCGGAGTCACCTAGTGCAG | 8720 fluorescence intensity (a.u.)
ATCTTTGCTCTTAGCTGCACCGGGTTCCTGGAAGGACCTGCGGAGTCACCTAGTGCAG | 9270 fluorescence intensity (a.u.)
CAAGAGGTTCTTTGAGAGCTACTCCATCGTTTCAAATTATCGGAGTCACCTAGTGCAG | 8240 fluorescence intensity (a.u.)
CACCAACGCGTCCCCACCGTGTCGCCTCCTGATTGGTTGTCGGAGTCACCTAGTGCAG | 12100 fluorescence intensity (a.u.)
TCAATAGGTCTTTTTTTTTCCTCCTTCCAAACATCATGAACGGAGTCACCTAGTGCAG | 9290 fluorescence intensity (a.u.)
CTCCAATCCTGCATGAATATATTTGTGCCATTGCTATTTGCGGAGTCACCTAGTGCAG | 8940 fluorescence intensity (a.u.)
TTCAGTCGCCGCGGCGGCGTTGCTGCCGGCGGTGGCGGGGCGGAGTCACCTAGTGCAG | 8740 fluorescence intensity (a.u.)
TGTGTGTGCTACCCCGTCATTGTTGCACTGCCGCCCTTCTCGGAGTCACCTAGTGCAG | 10200 fluorescence intensity (a.u.)
CTCCAACGACTGCCACGATTGCGTCACCATCTTCGTCTTCCGGAGTCACCTAGTGCAG | 10800 fluorescence intensity (a.u.)
GTTCGTATGCTTTTTTACTTGTTTTGAGTGCAACTGTTTGCGGAGTCACCTAGTGCAG | 11100 fluorescence intensity (a.u.)
CCTCTCCCTTCTCTCTTCTTCGTCCTCACTTCTCTCTTCTCGGAGTCACCTAGTGCAG | 8370 fluorescence intensity (a.u.)
TATATTGGTGTAAATCGATGTTTGGTACTCCGATCCCGTTCGGAGTCACCTAGTGCAG | 8340 fluorescence intensity (a.u.)
ATACAGGTCTCTTTCTTCTTTAATATATACACTGTAAATCCGGAGTCACCTAGTGCAG | 8450 fluorescence intensity (a.u.)
AGTTCACCACCACCGCCACGCGCGCGCTGTCTCCAAACACCGGAGTCACCTAGTGCAG | 8250 fluorescence intensity (a.u.)

Sequence | binding signal
GCTGCATATAGTATTCCCACTGACAACCTCTCATACTTGTCGGAGTCACCTAGTGCAG | 8620 fluorescence intensity (a.u.)
TTCCTAAGGTCTCTTCTTTTCTTGCTCTGTTCTGCTGCTTCGGAGTCACCTAGTGCAG | 8620 fluorescence intensity (a.u.)
GGGGAGGGGAGGGGAAGATCTAGAACCGCGGGGAAGACGACGGAGTCACCTAGTGCAG | 12200 fluorescence intensity (a.u.)
AGTGCTGTGGGGAGGCGAACTCACCCTCATATTTAATTCTCGGAGTCACCTAGTGCAG | 8030 fluorescence intensity (a.u.)
ATTATGATTCTGACCTAGCTAGAGCTTACAATCCCATGCCCGGAGTCACCTAGTGCAG | 8760 fluorescence intensity (a.u.)
ACGCCACATCTCTCGCCAGCGAGCGCACCTCGTCCTCGTCCGGAGTCACCTAGTGCAG | 9420 fluorescence intensity (a.u.)
TTGGACCTAAAGTTGAGGAGTGGTTTGCTTGTTTAAATGTCGGAGTCACCTAGTGCAG | 8310 fluorescence intensity (a.u.)
GCGGGCGCGGTCGCCGCGCTCAACCTCTCCGGGGCGGGGCCGGAGTCACCTAGTGCAG | 9450 fluorescence intensity (a.u.)
CTACAAGGATCCATTGGAAGGCATTTTCCTTATTCCGCACCGGAGTCACCTAGTGCAG | 8130 fluorescence intensity (a.u.)
GAGTTGTGCTGGTCCAGGTGTTTGGCTGCGTTGCAAGGTGCGGAGTCACCTAGTGCAG | 8440 fluorescence intensity (a.u.)
GCTATGATTGTCTTTAGGGTATCTAATAATTGTGGTTTGACGGAGTCACCTAGTGCAG | 10600 fluorescence intensity (a.u.)
TTTCTCGTTCCTATCGACGCCGGAGTCCACGCTGCTCATCCGGAGTCACCTAGTGCAG | 8220 fluorescence intensity (a.u.)
TCATTATCTTTCTCTCTTCATCTCTTGATCAGCTCTTGACCGGAGTCACCTAGTGCAG | 9560 fluorescence intensity (a.u.)
TCATTTGTCTCCAAGTCTCCACCACCTCCTTATGATCCAACGGAGTCACCTAGTGCAG | 9000 fluorescence intensity (a.u.)
CTTTGGTTAATTGTCGTCTTCTTCTCTCTCTCTGCATCCACGGAGTCACCTAGTGCAG | 12300 fluorescence intensity (a.u.)
ACCAAGCCGGCTTTTTTGACCACCCACAGCGCCATCCACACGGAGTCACCTAGTGCAG | 8240 fluorescence intensity (a.u.)
GGCCTCCACCGTCCGTTTCTCCGTCCCACGGCCCATCATCCGGAGTCACCTAGTGCAG | 10400 fluorescence intensity (a.u.)
GAAGTCTTCTATTGCATTGTTTTATTCTTCACTTAGTGGTCGGAGTCACCTAGTGCAG | 8230 fluorescence intensity (a.u.)
CTGTTACTGTTGATTTAGCGCGTTTTGCCTGTATAAATTTCGGAGTCACCTAGTGCAG | 13700 fluorescence intensity (a.u.)
ATATTCACCACGTCGTCTTCCTCGTCGTCGCCGCTCTATACGGAGTCACCTAGTGCAG | 10600 fluorescence intensity (a.u.)
GTCTTCCCCATTGCGTCGAAGAGAACCATATTCCCAGTTTCGGAGTCACCTAGTGCAG | 9220 fluorescence intensity (a.u.)

4 entries from above in another layout.
TTGGACCTAAAGTTGAGGAGTGGTTTGCTTGTTTAAATGTCGGAGTCACCTAGTGCAG
  binding signal: 8310 fluorescence intensity (a.u.)
GCGGGCGCGGTCGCCGCGCTCAACCTCTCCGGGGCGGGGCCGGAGTCACCTAGTGCAG
  binding signal: 9450 fluorescence intensity (a.u.)
CTACAAGGATCCATTGGAAGGCATTTTCCTTATTCCGCACCGGAGTCACCTAGTGCAG
  binding signal: 8130 fluorescence intensity (a.u.)
GAGTTGTGCTGGTCCAGGTGTTTGGCTGCGTTGCAAGGTGCGGAGTCACCTAGTGCAG
  binding signal: 8440 fluorescence intensity (a.u.)
